# Results published in PubChem BioAssay AID504327 (National Center for Advancing Translational Sciences (NCATS), 2011).
# The chains behind the UniProt entries cited, without tags or fusion partners.
# UniProt Q92830, whole entry, looked up: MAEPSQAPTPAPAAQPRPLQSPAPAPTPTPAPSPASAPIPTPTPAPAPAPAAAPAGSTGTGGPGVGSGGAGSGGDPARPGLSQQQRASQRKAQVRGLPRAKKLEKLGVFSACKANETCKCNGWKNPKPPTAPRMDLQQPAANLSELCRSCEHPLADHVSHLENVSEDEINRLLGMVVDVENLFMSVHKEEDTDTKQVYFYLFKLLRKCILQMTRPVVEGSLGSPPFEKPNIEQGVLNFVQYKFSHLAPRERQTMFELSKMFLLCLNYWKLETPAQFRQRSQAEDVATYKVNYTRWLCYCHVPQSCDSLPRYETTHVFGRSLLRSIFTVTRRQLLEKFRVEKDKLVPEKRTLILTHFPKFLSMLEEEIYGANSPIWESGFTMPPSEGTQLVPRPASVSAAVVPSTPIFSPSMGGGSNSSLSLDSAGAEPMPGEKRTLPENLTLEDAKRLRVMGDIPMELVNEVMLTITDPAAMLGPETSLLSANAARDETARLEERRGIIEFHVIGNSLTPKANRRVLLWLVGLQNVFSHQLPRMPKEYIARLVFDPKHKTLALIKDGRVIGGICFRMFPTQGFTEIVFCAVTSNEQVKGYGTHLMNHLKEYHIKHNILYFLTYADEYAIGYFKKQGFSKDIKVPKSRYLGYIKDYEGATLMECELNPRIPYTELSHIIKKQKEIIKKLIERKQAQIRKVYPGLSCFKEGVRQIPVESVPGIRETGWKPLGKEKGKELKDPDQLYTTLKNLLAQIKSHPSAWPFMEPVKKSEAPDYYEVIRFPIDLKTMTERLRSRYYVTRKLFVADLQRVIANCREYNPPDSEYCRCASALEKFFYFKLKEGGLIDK
# The campaign covered roughly 390,000 compounds. About 820 (0.21%) were called active. Inconclusive results, whose numbers are uncertain, are shown with a selection of clear calls. The call rests on the fitted dose curve; in most records, active means well fitted inhibition curve with a large enough effect; inconclusive means small, poorly fitted or top-dose-only effect, or another doubt; inactive means no such curve, though single readings can be large or run the other way. Where the call is inconclusive, the potency comes from a doubtful curve fit.
# Target: Histone acetyltransferase KAT2A (Homo sapiens) (UniProt Q92830)
# Test: qHTS Assay for Inhibitors of GCN5L2
# Conditions: GCN5L2 HAT assay, ThioGlo1 CoA-SH fluorescence; activity change, negative = inhibition: at 58.9 µM (top of the series) unless noted
# How it was run: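 Free CoA generated was detected with ThioGlo1 (50uM) fluorescence at Ex340nm/Em540nm, read immediately and after 20 min at room temperature. Enzyme, 20 nM in HEPES pH 7.5 buffer, saw compounds 15 min before adding 75uM H3(1-25) peptide and 70uM acetyl-CoA.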
# On the % scale 0 is the no-effect control and ±100 the full control effect; potency means the concentration at half of the fitted maximal effect.
SMILES,Potency,"activity change, negative = inhibition"
Cc1ccc2cc(CN(CCc3ccccc3)C(=S)NCCCN(C)C)c(=O)[nH]c2c1,"inconclusive: 20 µM [inhibitor, single point]",–
COc1ccc(C(=O)COC(=O)c2ccc(Cl)nc2)cc1OC,inactive,–
CCCCn1c(-c2nn(C)c(C)c2Cl)n[nH]c1=S,"inconclusive: 1 µM [inhibitor, full curve, poor fit]",–
COc1cccc(C(=O)Nc2nnc(-c3ccccc3)s2)c1OC,"inconclusive: 39.8 µM [inhibitor, single point]",–
COC(=O)c1ccccc1NC(=O)CCn1nc(C)c2c(C)n(-c3ccccc3)nc2c1=O,"inconclusive: 0.794 µM [inhibitor, single point]",–
COC(=O)Cn1c(-c2ccc(OC)cc2)c(-c2ccc(OC)cc2)nnc1=O,"inconclusive: 28.2 µM [inhibitor, single point]",–
CCOC(=O)C1=C(N)n2c(s/c(=C\c3ccco3)c2=O)=C(C(=O)OCC)C1c1ccco1 (stereo not drawn),"inconclusive: 3.16 µM [inhibitor, partial curve]",–
CN(c1ccccc1)S(=O)(=O)c1cccc(NC(=O)COc2ccccc2)c1,"inconclusive: 39.8 µM [inhibitor, single point]",–
CC(=O)Nc1nc(C(=O)Nc2c(C)n[nH]c2C)cs1,"inconclusive: 7.08 µM [inhibitor, single point]",–
CCCCN(C)C(=O)c1ccc2c(c1)N(Cc1cccc(Cl)c1)C(=O)c1ccccc1S2=O (stereo not drawn),inactive,–
COc1ccc(C2=NN(c3nc(-c4ccccc4)c(CC(=O)O)s3)C(c3ccco3)C2)cc1 (stereo not drawn),"inconclusive: 28.2 µM [inhibitor, single point]",–
CCOc1ccc(CC(=O)N/N=C(\C)c2cccnc2)cc1OCC,"inconclusive: 44.7 µM [inhibitor, partial curve, poor fit]",–
CNC(=S)N1N=C(c2cccs2)CC1c1ccc(F)cc1 (stereo not drawn),"inconclusive: 1.78 µM [inhibitor, partial curve]",–
COc1ccc(C(=O)C(CCCCC(CN(C)C)C(=O)c2ccc(OC)cc2)CN(C)C)cc1 (stereo not drawn),inactive,–
Cc1sc2nc(CSc3nc4ccccc4s3)[nH]c(=O)c2c1C,"inconclusive: 8.91 µM [inhibitor, full curve]",–
CN(C)C(=O)c1ccc(-c2nc(Nc3ccccc3)c3ccccc3n2)cc1,"inconclusive: 31.6 µM [inhibitor, single point]",–
CCOc1ccccc1CNC(=O)C1CCN(Cc2cc3ccccc3n2Cc2ccccc2)CC1,inactive,–
O=C(Nc1nc2ccc(Cl)cc2s1)C1CCCO1 (stereo not drawn),–,inconclusive: -80.3% [inhibitor]

# Whole records, quoted from the list. Values in the order: Potency	activity change, negative = inhibition
# CCOc1ccccc1CNC(=O)C1CCN(Cc2cc3ccccc3n2Cc2ccccc2)CC1 is listed as inactive	–
# CN(C)C(=O)c1ccc(-c2nc(Nc3ccccc3)c3ccccc3n2)cc1 is listed as inconclusive: 31.6 µM [inhibitor, single point]	–
